# Data reported in the supplement of paper PMC8326762, “A Small Molecule Inhibitor of Pex3–Pex19 Interaction Disrupts Glycosome Biogenesis and Causes Lethality in Trypanosoma brucei” (Frontiers in Cell and Developmental Biology, 2021).
# Counter-ions that a name gives are not always drawn. This is one part of the list. This is a noisy data set.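 Yeast growth was measured as optical density at 600 nm. Two-hybrid strains grew without histidine, so growth depended on Pex3–Pex19 binding. A compound was trypanosome-selective if it reduced growth of the trypanosome-pair strain by over 65% and of the human-pair strain by under 65%.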
# Tests used:
# [1] = test system: Saccharomyces cerevisiae HF7c pdr5Δ; test: general growth inhibition of yeast HF7c pdr5Δ in -Leu -Trp medium, relative to DMSO; higher = stronger general growth inhibition; conditions: 100 µM; 24 h
# [2] = test system: human PEX3-PEX19 interaction (yeast two-hybrid); test: growth inhibition of yeast two-hybrid strain reporting HsPex3-HsPex19 interaction, relative to DMSO; higher = stronger inhibition of human Pex3-Pex19 interaction / growth; conditions: 100 µM; 24 h; 3-aminotriazole 10 mM
# [3] = test system: T. brucei Pex3-Pex19 interaction (yeast two-hybrid); test: growth inhibition of yeast two-hybrid strain reporting TbPex3-TbPex19 interaction, relative to DMSO; higher = stronger inhibition of T. brucei Pex3-Pex19 interaction / growth; conditions: 100 µM; 24 h
Structure (SMILES),general growth inhibition [1] [%],growth inhibition [2] [%],growth inhibition [3] [%]
CO/N=C(\C(=O)N[C@@H]1C(=O)N2C(C(=O)O)=C(CSc3nc(=O)c(O)nn3C)CS[C@H]12)c1csc(N)n1 [Ceftriaxone sodium],49.8,40,62.8
O=C(O)/C=C/c1cnc[nH]1 [4-Imidazoleacrylic acid],57.7,45.5,64.7
CC[N+](CC)(CC)CCOc1ccc(/C=C/c2ccccc2)cc1,81,73.7,68.4
O=C(O)Cn1c(C(=O)Nc2nc(-c3ccccc3Cl)cs2)cc2ccccc21,29.8,23.9,60.8
C[C@@H]1C(=O)NC2=Nc3cccc(Cl)c3CN21 [Quazinone],44.6,43.2,62.1
C[C@H](CS)C(=O)N1CCC[C@H]1C(=O)O [Captopril],32.3,35.5,45.4
COc1ccc(CCN(C)CCc2ccc(OC)c(OC)c2)cc1OC [YS-035 hydrochloride],50.2,52.1,63.1
NCCNS(=O)(=O)c1cccc2c(Cl)cccc12 [A3 hydrochloride],55.6,43.7,58.7
O=C1NC(c2cccc([N+](=O)[O-])c2)=CCN1c1ccccc1O [Icilin],34.2,22.7,61.6
OCCN1CCN(CC/C=C2/c3ccccc3Sc3ccc(C(F)(F)F)cc32)CC1 [cis-(Z)-Flupenthixol dihydrochloride],13.2,26.1,46.2
COc1ccc(CCN(C)CCCC(C#N)(c2cc(OC)c(OC)c(OC)c2)C(C)C)cc1OC (racemic) [(±)-Methoxyverapamil hydrochloride],42.5,52.1,63.8
COc1cc(C(O)C(=O)O)ccc1O (racemic) [(±)-Vanillylmandelic acid],38.7,42.5,58.4
Cn1ccc2cc(NC(=O)Nc3cccnc3)ccc21,39.4,39.3,55.7
C[C@H](CSC(=O)c1ccccc1)C(=O)N1C[C@@H](Sc2ccccc2)C[C@H]1C(=O)O [Zofenopril calcium],56,26.3,35.9
CC(C)C[C@H](NC(=O)[C@H]1O[C@@H]1C(=O)O)C(=O)NCCCCN=C(N)N,19.2,34.6,49.2
CN(C)CCC(c1ccccc1)c1ccccn1 (configuration not stated) [Pheniramine maleate],42.2,35.8,61.6
CN1CCC(=C2c3ccccc3C=Cc3ccccc32)CC1 [Cyproheptadine hydrochloride],33.5,38,50.1
COC(=O)C(N)Cc1ccc(Cl)cc1 (racemic) [DL-p-Chlorophenylalanine methyl ester hydrochloride],16.1,12.7,34.8
"CN(C)CCC(c1ccc(Cl)cc1)c1ccccn1 (single isomer, unassigned; (+)) [(+)-Chlorpheniramine maleate]",48.9,38,63.2
NC(CCCP(=O)(O)O)C(=O)O (stereo not drawn) [D(-)-2-Amino-5-phosphonopentanoic acid],34.4,40.7,60.5
CN(C)CCc1c[nH]c2ccc(Cn3cncn3)cc12 [Rizatriptan benzoate salt],37.3,33.9,66.2
NC[C@@H]1O[C@H](c2ccccc2)Cc2c1ccc(O)c2O,54.6,46.7,68.9

Structure (SMILES),general growth inhibition [1] [%],growth inhibition [2] [%],growth inhibition [3] [%]
CCCCCc1ccc(/C=C/C(=O)Nc2cc(Cl)ccc2C(=O)O)cc1,19.9,18,37.3
CCN(CC)CCNC(=O)c1c(C)[nH]c(/C=C2\C(=O)Nc3ccc(F)cc32)c1C [Sunitinib malate],34.2,21.4,61.7
CC[C@H](C)C(=O)O[C@H]1CCC=C2C=C[C@H](C)[C@H](CC[C@@H]3C[C@@H](O)CC(=O)O3)[C@H]21 [Mevastatin],63.9,50.4,64
CC(NCCc1ccc(O)cc1)C(O)c1ccc(O)cc1 (configuration not stated) [Ritodrine hydrochloride],27.7,12.9,42.7
CC(C)c1c(C(=O)Nc2ccccc2)c(-c2ccccc2)c(-c2ccc(F)cc2)n1CC[C@@H](O)C[C@@H](O)CC(=O)O [Atorvastatin calcium salt trihydrate],84.3,79.8,77.2
Oc1cc(O)cc(/C=C/c2ccc(O)c(O)c2)c1 [Piceatannol],58.8,47.7,73.7
CN(CCOc1ccc(NS(C)(=O)=O)cc1)CCc1ccc(NS(C)(=O)=O)cc1 [Dofetilide],23.5,34.9,51
CCNc1nc2c(ncn2[C@H]2C[C@H](O)[C@@H](CO)O2)c(=O)[nH]1 [N2-Ethyl-2'-deoxyguanosine],41.2,50.2,67.6
Clc1ccc(N2CCN(Cc3cc4ccccn4n3)CC2)cc1,50.3,35.9,48.3
Cc1nnc(SCC2=C(C(=O)O)N3C(=O)[C@@H](NC(=O)Cn4cnnn4)[C@H]3SC2)s1 [Cefazolin sodium],39.6,39,60.4
O=C1c2ccccc2-c2n[nH]c3cccc1c23,31.7,43.2,40.1
Nc1ccc(CCNc2ncnc3c2ncn3C2OC(CO)C(O)C2O)cc1 (configuration not stated) [N6-2-(4-Aminophenyl)ethyladenosine],47.7,41.5,60.3
COC(=O)C1=C(C)NC(C)=C(C(=O)OC2CCCN(Cc3ccccc3)C2)C1c1cccc([N+](=O)[O-])c1 (configuration not stated) [Benidipine hydrochloride],23.4,22.2,38.1
O=[N+]([O-])c1cccc2c(Br)[nH]nc12 [3-Bromo-7-nitroindazole],55.6,48.1,48.3
Cn1c(=O)c2nc[nH]c2n(C)c1=O [Theophylline],55.9,52.8,72.2
"CN(C)CCC(c1ccc(Br)cc1)c1ccccn1 (single isomer, unassigned; (+)) [(+)-Brompheniramine maleate]",9.09,4.92,26.3
CN1Cc2sccc2C(c2ccc(O)c(O)c2)C1 (configuration not stated),42.9,41.9,55.2
CNS(=O)(=O)CCc1ccc2[nH]cc(C3CCN(C)CC3)c2c1 [Naratriptan hydrochloride],25.3,37,56.1
C[n+]1cc2c3c(ccc2c2ccc4cc5c(cc4c21)OCO5)OCO3 [Sanguinarine chloride],73.4,48.9,60.6
CCCCCC[C@@H]([C@@H](C)O)n1cnc2c(N)ncnc21 [erythro-9-(2-Hydroxy-3-nonyl)adenine hydrochloride],31.5,31.5,58.5
COc1cccc(OC)c1OCCNCC1COc2ccccc2O1 (configuration not stated) [WB-4101 hydrochloride],18.8,39,54.3
CC(CN(C)C)CN1c2ccccc2CCc2ccccc21 (configuration not stated) [Trimipramine maleate],56.3,45.8,62.6

# Reprinted at random: 3 compounds from above.
Structure (SMILES),general growth inhibition [1] [%],growth inhibition [2] [%],growth inhibition [3] [%]
"CN(C)CCC(c1ccc(Br)cc1)c1ccccn1 (single isomer, unassigned; (+)) [(+)-Brompheniramine maleate]",9.09,4.92,26.3
C[C@@H]1C(=O)NC2=Nc3cccc(Cl)c3CN21 [Quazinone],44.6,43.2,62.1
COc1cccc(OC)c1OCCNCC1COc2ccccc2O1 (configuration not stated) [WB-4101 hydrochloride],18.8,39,54.3

# (next part)

Structure (SMILES),general growth inhibition [1] [%],growth inhibition [2] [%],growth inhibition [3] [%]
CN(Cc1cnc2nc(N)nc(N)c2n1)c1ccc(C(=O)N[C@@H](CCC(=O)O)C(=O)O)cc1 [Methotrexate hydrate],53.7,46.6,61.8
CNC(=O)[C@H]1O[C@@H](n2cnc3c(NCc4ccc(N)cc4)ncnc32)[C@H](O)[C@@H]1O,45.2,39.8,57
CCn1c(=O)[nH]c2cc(Cl)c(Cl)cc21,35.9,40,37.5
NC(N)=NC(N)=Nc1cccc(Cl)c1 [1-(m-Chlorophenyl)-biguanide hydrochloride],41.1,40,59.2
Nc1nc2ccc(Cl)cc2n2c(-c3ccccc3)nnc12,55.6,45,57.1
Nc1ncnc2c1ncn2C1CCCO1 (configuration not stated),2.76,-35.7,34.9
O=C(c1ccc(F)cc1)C1CCN(CCn2c(=O)[nH]c3ccccc3c2=O)CC1 [Ketanserin tartrate],17.1,8.66,40.3
NC(=S)c1ccc[n+]([C@@H]2O[C@@H](COP(=O)([O-])OP(=O)(O)OC[C@H]3O[C@@H](n4cnc5c(N)ncnc54)C(OP(=O)(O)O)[C@H]3O)C(O)C2O)c1 (some centres not stated) [Thio-NADP sodium],46.9,46.9,56.8
Cn1c(=O)c2c(ncn2C)n(C)c1=O [Caffeine],30.1,36.6,57.5
OCCN(CCO)c1nc(N2CCCCC2)c2nc(N(CCO)CCO)nc(N3CCCCC3)c2n1 [Dipyridamole],33.2,23.5,51.2
c1ccc(C(NCc2cccnc2)(c2ccccc2)c2ccccc2)cc1,65,62.4,52
CC12CC3CC(C)(C1)CC(N)(C3)C2 [Memantine hydrochloride],32.4,29.9,57.4
CCCC(CCC)C(=O)O [Valproic acid sodium],38.4,39.7,48.4
CN1Cc2c(N)cccc2C(c2ccccc2)C1 (configuration not stated) [Nomifensine maleate],9.67,5.72,40.3
OCCN1CCN(CCCN2c3ccccc3Sc3ccc(C(F)(F)F)cc32)CC1 [Fluphenazine dihydrochloride],-4.14,-15.6,22.5
O=C(O)Cc1c[nH]c2ccc(O)cc12 [5-Hydroxyindolacetic acid],5.21,3.73,41.2
CC/C(=C(\c1ccccc1)c1ccc(OCCN(C)C)cc1)c1ccccc1 [Tamoxifen citrate],57.1,30.3,71.7
N=C(N)N1CCc2ccccc2C1 [Debrisoquin sulfate],20.7,19.9,41.5
C[C@@H](O)[C@H]1C(=O)N2C(C(=O)O)=C(SCCNC=N)C[C@H]12 [Imipenem monohydrate],51.6,47.2,56.5
CN(C)c1ccccc1CN1CCCN(Cc2ccccc2N(C)C)C1c1ccncc1,52.5,50.5,68.4
